Drawing on paper doi:10.1101/2023.12.01.569363, this text covers binding for one substance.

By UniProt entry, the sequences of proteins in these tests, tags left out.
UniProt P11166: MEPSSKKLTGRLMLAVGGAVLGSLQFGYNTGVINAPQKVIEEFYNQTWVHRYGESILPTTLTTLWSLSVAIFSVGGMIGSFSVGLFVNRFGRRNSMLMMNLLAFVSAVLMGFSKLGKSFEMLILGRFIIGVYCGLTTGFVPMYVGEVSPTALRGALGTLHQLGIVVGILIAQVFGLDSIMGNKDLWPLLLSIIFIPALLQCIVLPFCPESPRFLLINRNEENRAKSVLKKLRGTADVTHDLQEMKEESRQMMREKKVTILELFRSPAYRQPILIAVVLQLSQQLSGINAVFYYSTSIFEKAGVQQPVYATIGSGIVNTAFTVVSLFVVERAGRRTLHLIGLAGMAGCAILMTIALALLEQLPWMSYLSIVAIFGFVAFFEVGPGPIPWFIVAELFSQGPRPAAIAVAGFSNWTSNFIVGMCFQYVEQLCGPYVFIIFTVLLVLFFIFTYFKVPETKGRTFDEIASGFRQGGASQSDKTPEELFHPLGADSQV

No constants are given. Whether binding was seen depends on the method and setting. For some assays here: In cells and extracts the contact can be indirect. Some results given as binding are weak or reduced against the parent protein; the word gives no strength.

In assay [1] the target is T1, PURA (human) (UniProt Q00577).
T1 sequence: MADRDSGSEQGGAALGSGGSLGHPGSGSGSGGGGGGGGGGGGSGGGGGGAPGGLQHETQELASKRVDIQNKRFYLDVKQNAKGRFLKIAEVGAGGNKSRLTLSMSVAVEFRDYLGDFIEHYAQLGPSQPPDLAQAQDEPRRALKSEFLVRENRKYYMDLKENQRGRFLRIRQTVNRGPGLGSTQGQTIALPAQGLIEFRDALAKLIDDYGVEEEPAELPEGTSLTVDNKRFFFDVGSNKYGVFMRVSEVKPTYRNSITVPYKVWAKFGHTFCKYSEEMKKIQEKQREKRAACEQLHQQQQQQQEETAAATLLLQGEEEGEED
Nature of the assay: far-Western, overlay or dot blot.

Assay [2] concerns the target T1, PURA (human). As to the kind of experiment: co-IP.

Consider “glucose transporter 1 (from UniProt P11166 1-492)”, for which the binding result with PURA (human) [1] and with PURA (human) [2] was “binds” in each case.
